The other results are listed elsewhere or left out.
Experiments:
Test in all cases: log2 fold change, soluble protein after heating vs DMSO (PISA); higher = thermal stabilisation; K562 cells, 10 uM, 30 min; active = over 0.2 and 3.5 SD of the protein, either way, in both replicates (recomputed)
[1] = compound: COC1=CC=C(C=C1)CN2C=CC3=C2C=C(C=C3)C(=O)NO
How it was run: (§1)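 Soluble protein was quantified by TMTpro 16plex LC-MS/MS after channel sums were equalised. It was obtained as the supernatant after 21,000xg for 90 min from pooled aliquots of K562 cells (2×10^6 cells/mL, 10 μM compound, 30 min) heated for 3 min across 48°C-58°C and extracted in PBS with 0.5% NP-40 at 4°C. Thermal stability values are relative to control samples and come from duplicates. They are given as log2 fold changes.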

Sequences of proteins named here, by UniProt entry; tags and fusion partners are left off. A change or cut given only in a name is not applied to a line headed by its entry.
UniProt Q5TKA1: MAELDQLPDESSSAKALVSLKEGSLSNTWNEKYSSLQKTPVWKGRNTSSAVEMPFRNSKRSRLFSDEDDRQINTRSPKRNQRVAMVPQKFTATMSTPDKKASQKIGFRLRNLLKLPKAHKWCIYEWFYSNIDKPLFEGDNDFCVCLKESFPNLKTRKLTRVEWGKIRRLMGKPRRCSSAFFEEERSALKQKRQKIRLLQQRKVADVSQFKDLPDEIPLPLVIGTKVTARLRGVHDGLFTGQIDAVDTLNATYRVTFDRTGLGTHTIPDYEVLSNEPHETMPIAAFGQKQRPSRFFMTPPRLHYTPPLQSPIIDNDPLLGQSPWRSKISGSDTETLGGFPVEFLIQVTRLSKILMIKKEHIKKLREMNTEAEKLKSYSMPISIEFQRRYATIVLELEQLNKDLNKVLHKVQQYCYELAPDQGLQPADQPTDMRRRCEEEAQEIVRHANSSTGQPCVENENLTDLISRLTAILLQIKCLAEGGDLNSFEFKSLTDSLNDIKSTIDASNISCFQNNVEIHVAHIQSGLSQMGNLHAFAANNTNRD
UniProt Q9BU23: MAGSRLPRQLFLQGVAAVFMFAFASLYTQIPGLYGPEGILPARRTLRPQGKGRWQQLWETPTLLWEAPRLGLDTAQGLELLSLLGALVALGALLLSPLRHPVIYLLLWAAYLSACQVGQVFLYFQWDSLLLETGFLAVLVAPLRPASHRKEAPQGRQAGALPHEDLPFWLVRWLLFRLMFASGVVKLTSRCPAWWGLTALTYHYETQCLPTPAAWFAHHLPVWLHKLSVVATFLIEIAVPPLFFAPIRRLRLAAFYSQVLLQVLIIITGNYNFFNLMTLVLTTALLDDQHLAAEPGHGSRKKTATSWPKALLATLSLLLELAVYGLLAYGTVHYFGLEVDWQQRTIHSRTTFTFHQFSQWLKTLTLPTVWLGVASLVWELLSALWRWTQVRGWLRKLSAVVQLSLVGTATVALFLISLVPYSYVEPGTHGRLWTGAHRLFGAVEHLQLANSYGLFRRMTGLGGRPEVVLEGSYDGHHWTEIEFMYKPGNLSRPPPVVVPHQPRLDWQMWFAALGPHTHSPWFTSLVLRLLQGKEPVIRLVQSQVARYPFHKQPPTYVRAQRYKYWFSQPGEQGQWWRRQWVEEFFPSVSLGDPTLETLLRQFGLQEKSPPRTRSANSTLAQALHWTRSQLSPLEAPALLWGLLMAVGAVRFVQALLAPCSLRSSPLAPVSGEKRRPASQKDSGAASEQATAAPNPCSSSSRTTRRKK
UniProt Q96BZ8: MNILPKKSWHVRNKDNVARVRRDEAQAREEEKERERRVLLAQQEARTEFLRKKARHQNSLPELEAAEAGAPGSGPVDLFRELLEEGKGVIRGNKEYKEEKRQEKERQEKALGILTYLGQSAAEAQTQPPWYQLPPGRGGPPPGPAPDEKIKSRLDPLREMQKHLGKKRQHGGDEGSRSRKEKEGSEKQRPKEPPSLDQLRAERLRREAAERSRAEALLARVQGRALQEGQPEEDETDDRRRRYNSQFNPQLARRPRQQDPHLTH
UniProt Q96EM0: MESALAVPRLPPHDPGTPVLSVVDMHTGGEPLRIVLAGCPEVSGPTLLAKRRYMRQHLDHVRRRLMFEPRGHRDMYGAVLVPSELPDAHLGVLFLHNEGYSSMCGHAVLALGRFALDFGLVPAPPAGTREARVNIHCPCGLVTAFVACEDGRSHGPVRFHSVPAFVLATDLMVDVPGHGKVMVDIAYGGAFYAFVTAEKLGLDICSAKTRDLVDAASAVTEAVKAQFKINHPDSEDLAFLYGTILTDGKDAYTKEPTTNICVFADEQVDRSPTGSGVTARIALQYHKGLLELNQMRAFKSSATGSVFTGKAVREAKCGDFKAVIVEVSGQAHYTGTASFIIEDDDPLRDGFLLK
UniProt Q8N3Y3: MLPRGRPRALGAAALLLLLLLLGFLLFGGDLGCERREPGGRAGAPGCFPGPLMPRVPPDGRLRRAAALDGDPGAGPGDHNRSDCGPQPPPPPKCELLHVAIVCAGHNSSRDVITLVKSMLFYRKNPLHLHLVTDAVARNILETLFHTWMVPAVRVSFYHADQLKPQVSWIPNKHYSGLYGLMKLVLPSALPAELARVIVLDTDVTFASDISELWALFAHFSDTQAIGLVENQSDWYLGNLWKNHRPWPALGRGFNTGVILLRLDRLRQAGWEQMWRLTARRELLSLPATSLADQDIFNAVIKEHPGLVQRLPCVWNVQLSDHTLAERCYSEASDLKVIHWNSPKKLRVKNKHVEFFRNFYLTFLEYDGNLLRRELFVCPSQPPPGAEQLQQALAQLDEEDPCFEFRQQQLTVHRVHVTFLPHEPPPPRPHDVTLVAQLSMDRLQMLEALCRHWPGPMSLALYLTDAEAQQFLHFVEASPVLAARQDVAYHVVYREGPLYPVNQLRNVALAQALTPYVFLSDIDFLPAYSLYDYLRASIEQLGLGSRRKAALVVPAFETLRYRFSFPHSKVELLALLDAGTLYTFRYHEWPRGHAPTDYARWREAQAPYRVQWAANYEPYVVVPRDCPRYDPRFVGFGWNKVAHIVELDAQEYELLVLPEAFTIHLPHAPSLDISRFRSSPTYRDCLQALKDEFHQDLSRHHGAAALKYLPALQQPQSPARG
UniProt Q9H008: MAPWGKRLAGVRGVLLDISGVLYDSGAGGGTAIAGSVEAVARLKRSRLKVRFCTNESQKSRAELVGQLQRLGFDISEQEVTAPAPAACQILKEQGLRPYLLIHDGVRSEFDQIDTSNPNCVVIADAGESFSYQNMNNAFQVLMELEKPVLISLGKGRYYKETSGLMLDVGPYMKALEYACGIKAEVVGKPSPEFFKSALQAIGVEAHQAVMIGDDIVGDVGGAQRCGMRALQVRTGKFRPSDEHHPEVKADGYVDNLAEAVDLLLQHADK
UniProt Q9NS86: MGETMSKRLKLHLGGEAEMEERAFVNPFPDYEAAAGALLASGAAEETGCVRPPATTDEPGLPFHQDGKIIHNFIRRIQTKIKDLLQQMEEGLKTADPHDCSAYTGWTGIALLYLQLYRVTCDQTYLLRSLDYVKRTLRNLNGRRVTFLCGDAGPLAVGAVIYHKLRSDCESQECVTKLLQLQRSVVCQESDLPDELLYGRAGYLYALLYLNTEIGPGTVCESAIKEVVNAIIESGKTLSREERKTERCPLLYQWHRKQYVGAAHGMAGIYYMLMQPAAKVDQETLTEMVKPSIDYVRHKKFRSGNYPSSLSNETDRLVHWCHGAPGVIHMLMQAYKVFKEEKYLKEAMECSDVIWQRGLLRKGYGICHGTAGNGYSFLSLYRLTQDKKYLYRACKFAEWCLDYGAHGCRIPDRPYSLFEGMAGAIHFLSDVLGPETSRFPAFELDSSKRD
UniProt P48059, whole entry, looked up: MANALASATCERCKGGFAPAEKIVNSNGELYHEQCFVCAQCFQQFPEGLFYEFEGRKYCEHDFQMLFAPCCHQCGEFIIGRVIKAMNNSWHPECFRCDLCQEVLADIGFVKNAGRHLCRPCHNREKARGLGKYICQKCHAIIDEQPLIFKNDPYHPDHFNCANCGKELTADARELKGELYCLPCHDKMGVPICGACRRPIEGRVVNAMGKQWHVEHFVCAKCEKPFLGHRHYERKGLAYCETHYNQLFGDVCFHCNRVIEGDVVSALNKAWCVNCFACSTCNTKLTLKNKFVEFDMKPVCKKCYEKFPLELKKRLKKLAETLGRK
UniProt Q4G0J3: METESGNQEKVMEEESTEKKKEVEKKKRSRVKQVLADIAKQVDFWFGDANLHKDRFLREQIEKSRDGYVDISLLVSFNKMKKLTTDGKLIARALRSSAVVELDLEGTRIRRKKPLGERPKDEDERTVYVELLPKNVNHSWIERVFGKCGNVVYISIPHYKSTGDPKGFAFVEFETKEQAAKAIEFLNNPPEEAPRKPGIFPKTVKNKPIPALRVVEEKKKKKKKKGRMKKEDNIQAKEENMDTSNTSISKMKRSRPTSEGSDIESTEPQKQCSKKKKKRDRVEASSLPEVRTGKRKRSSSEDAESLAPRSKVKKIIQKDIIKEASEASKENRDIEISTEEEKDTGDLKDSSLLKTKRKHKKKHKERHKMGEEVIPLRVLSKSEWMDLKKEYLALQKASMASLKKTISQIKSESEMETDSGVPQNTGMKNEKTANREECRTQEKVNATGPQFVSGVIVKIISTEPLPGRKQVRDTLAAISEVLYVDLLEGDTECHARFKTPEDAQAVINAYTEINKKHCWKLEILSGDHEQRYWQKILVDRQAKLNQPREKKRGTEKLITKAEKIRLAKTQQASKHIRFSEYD
UniProt Q8N9N7: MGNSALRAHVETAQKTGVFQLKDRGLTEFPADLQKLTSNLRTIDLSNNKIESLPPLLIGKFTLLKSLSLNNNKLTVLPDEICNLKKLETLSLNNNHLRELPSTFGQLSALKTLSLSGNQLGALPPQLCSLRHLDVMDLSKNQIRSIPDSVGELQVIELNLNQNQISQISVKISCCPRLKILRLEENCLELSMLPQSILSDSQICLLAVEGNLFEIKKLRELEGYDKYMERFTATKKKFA
UniProt Q86UP2: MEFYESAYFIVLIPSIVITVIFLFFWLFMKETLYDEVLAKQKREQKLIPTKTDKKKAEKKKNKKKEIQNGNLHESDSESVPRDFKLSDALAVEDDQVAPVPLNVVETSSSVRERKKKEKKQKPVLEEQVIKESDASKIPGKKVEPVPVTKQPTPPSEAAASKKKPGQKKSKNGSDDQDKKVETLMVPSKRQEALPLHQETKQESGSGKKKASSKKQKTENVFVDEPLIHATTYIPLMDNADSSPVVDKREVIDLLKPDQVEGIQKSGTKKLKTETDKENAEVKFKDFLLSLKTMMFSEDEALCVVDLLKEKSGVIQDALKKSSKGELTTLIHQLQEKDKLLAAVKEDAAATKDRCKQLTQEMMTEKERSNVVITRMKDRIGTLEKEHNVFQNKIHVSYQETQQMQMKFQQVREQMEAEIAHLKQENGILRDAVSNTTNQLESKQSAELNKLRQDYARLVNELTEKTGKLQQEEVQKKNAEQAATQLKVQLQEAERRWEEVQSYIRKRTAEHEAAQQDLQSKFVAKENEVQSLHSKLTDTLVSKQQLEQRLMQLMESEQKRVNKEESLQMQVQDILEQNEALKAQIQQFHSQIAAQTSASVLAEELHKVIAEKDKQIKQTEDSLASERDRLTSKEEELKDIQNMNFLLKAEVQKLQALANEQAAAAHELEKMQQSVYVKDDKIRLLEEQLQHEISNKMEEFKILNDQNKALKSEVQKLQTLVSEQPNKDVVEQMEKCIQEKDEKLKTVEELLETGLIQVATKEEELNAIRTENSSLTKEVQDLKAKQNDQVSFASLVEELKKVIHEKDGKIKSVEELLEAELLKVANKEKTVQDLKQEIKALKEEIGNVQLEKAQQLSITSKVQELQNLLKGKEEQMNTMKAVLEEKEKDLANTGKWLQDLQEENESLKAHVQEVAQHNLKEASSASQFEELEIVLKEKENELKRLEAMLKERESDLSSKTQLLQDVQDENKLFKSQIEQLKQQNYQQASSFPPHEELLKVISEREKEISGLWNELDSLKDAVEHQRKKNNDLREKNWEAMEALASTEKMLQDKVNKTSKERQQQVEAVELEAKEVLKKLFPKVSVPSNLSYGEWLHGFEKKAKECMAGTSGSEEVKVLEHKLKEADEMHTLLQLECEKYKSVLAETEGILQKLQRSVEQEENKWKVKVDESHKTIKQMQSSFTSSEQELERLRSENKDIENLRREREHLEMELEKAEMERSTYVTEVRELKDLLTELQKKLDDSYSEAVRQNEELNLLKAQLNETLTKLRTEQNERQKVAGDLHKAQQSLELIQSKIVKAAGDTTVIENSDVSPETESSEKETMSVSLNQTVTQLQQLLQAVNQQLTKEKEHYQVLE
UniProt P30533, whole entry, looked up: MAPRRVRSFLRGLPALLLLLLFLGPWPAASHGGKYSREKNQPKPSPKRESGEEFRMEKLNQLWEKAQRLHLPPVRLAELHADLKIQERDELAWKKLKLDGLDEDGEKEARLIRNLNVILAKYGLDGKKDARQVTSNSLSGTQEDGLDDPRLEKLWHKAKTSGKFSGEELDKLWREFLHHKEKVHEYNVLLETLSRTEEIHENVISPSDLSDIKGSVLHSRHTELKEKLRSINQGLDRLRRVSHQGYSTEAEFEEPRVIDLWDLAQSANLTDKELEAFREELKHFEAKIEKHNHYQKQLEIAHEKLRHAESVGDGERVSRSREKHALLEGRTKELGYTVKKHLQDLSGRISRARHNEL
UniProt Q9UIC8: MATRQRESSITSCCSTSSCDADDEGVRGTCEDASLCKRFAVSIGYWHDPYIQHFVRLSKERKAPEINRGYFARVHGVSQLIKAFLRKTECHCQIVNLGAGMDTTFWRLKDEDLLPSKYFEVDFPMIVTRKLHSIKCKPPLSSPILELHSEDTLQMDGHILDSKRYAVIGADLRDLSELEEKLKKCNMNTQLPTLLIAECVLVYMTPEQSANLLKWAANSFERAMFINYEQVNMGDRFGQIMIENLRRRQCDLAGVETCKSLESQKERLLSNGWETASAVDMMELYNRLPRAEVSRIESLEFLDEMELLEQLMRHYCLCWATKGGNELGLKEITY

[2] = compound: CON(C)C(=O)N1N=C(c2cc(F)ccc2F)S[C@@]1(CCCN)c1ccccc1 [filanesib]
How it was run: as §1

[3] = compound: CO[C@H]1C[C@@H]2CC[C@@H](C)[C@@](O)(O2)C(=O)C(=O)N2CCCC[C@H]2C(=O)O[C@H]([C@H](C)C[C@@H]2CC[C@H](n3cnnn3)[C@H](OC)C2)CC(=O)[C@H](C)/C=C(\C)[C@@H](O)[C@@H](OC)C(=O)[C@H](C)C[C@H](C)/C=C/C=C/C=C/1C [zotarolimus]
How it was run: as §1

[4] = compound: COc1cc(C(=O)O)ccc1NC(=O)[C@@H]1N[C@@H](CC(C)(C)C)[C@](C#N)(c2ccc(Cl)cc2F)[C@H]1c1cccc(Cl)c1F [idasanutlin]
How it was run: as §1

[5] = compound: COc1cc(Nc2ncc3c(n2)-c2ccc(Cl)cc2C(c2c(F)cccc2OC)=NC3)ccc1C(=O)O [alisertib]
How it was run: as §1

[6] = compound: COc1cc2nc(-c3cc(F)ccc3O)nc(N[C@@H]3CNC[C@H]3C(C)(C)O)c2cc1OC
How it was run: as §1

[7] = compound: COc1cc2ncnc(Nc3ccc(F)c(Cl)c3)c2cc1OCCCN1CCOCC1 [gefitinib]
How it was run: as §1

[8] = compound: COc1cccc2cc(-c3nc([C@H]4CC[C@H](C(=O)O)CC4)n4ncnc(N)c34)[nH]c12
How it was run: as §1

[9] = compound: CS(=O)(=O)CCNCc1ccc(-c2ccc3ncnc(Nc4ccc(OCc5cccc(F)c5)c(Cl)c4)c3c2)o1 [lapatinib]
How it was run: as §1

[10] = compound: CS(=O)(=O)N1CCN(Cc2cc3nc(-c4cccc5[nH]ncc45)nc(N4CCOCC4)c3s2)CC1 [pictilisib]
How it was run: as §1

Measured: log2 fold change

LDB1 (UniProt Q86U70)
inactive: [1] -0.057 | [2] 0.043 | [3] -0.032 | [4] 0 | [5] -0.111 | [6] -0.044 | [7] -0.008 | [8] 0.051 | [9] -0.034 | [10] 0.024

LNPEP (UniProt Q9UIQ6)
inactive: [1] 0.001 | [2] -0.014 | [3] -0.03 | [4] -0.014 | [5] -0.01 | [6] 0.016 | [7] 0.01 | [8] 0.058 | [9] 0.003 | [10] 0.04

LIN9 isoform 2 (UniProt Q5TKA1)
inactive: [1] -0.12 | [2] 0.022 | [3] -0.038 | [4] 0.012

LARS2 (UniProt Q15031)
inactive: [1] 0.048 | [2] -0.113 | [3] 0.036 | [4] 0.002 | [5] -0.015 | [6] 0.012 | [7] -0.018 | [8] 0.032 | [9] 0.032 | [10] 0.023

LMF2 (UniProt Q9BU23)
inactive: [1] -0.041 | [2] -0.011 | [3] -0.027 | [4] -0.02 | [5] -0.025 | [6] -0.014 | [7] 0.013 | [8] -0.021 | [9] 0.062 | [10] -0.095

LENG1 (UniProt Q96BZ8)
inactive: [1] -0.062 | [2] 0.025 | [3] -0.05 | [4] 0.006 | [5] -0.108 | [6] 0.036 | [7] -0.018 | [8] 0.071 | [9] -0.003 | [10] 0.032

L1RE1 (UniProt Q9UN81)
inactive: [1] -0.058 | [2] 0.018 | [3] -0.026 | [4] 0.087 | [5] -0.328 | [6] 0 | [7] -0.021 | [8] 0.122 | [9] 0.012

LDLRAP1 (UniProt Q5SW96)
inactive: [1] 0.023

LIN28B (UniProt Q6ZN17)
inactive: [1] -0.04 | [2] 0.169 | [3] 0.017 | [4] 0.151 | [5] -0.087 | [6] -0.012 | [7] 0.025 | [8] 0.001 | [9] 0.043 | [10] 0.014

L3HYPDH (UniProt Q96EM0)
inactive: [1] 0.022 | [2] -0.116 | [3] 0.037 | [4] -0.136 | [5] 0.024 | [6] -0.04 | [7] 0.041 | [8] 0.025 | [9] 0.062 | [10] 0.032

LAMB1 (UniProt P07942)
inactive: [1] -0.013 | [2] 0.048 | [3] 0.028 | [4] 0.001 | [5] -0.012 | [6] -0.044 | [7] 0.018 | [8] 0.027 | [9] 0.009 | [10] 0

LARGE2 (UniProt Q8N3Y3)
inactive: [1] 0.004 | [2] 0.109

LRP10 (UniProt Q7Z4F1)
inactive: [1] 0.141 | [2] -0.052 | [3] -0.032 | [4] 0.009 | [5] 0.101 | [6] -0.224 | [7] -0.053 | [8] 0.117 | [9] 0.088

L2HGDH (UniProt Q9H9P8)
inactive: [1] 0.096 | [2] -0.121 | [3] 0.07 | [4] -0.037 | [5] -0.019 | [6] -0.034 | [7] -0.01 | [8] 0.041 | [9] -0.069 | [10] 0.115

LHPP (UniProt Q9H008)
inactive: [1] -0.067 | [2] 0.036 | [3] 0.06 | [4] -0.103 | [5] 0.016 | [6] 0.113 | [7] -0.042 | [8] 0.064 | [9] -0.12 | [10] 0.042

LANCL2 (UniProt Q9NS86)
inactive: [1] -0.019 | [2] -0.011 | [3] -0.021 | [4] -0.019 | [5] -0.095 | [6] 0.06 | [7] 0.008 | [8] 0.051 | [9] -0.019 | [10] -0.071

LEMD3 (UniProt Q9Y2U8)
inactive: [1] 0.036 | [2] 0 | [3] 0.107 | [4] -0.023 | [5] 0.073 | [6] -0.001 | [7] -0.013 | [8] 0.069 | [9] 0.044 | [10] 0.047

LIMS1 (UniProt P48059)
inactive: [1] 0.093

LEO1 (UniProt Q8WVC0)
inactive: [1] -0.038 | [2] 0.021 | [3] 0.175 | [4] 0.023 | [5] -0.08 | [6] -0.035 | [7] 0.009 | [8] -0.034 | [9] -0.032 | [10] 0.009

LPGAT1 (UniProt Q92604)
inactive: [1] 0.124 | [2] -0.021 | [3] 0.001 | [4] -0.098 | [5] 0.032 | [6] -0.082 | [7] -0.059 | [8] 0.12 | [9] 0.15

LPIN2 (UniProt Q92539)
inactive: [1] 0.039 | [2] -0.021 | [3] 0.033 | [4] -0.004 | [5] -0.019 | [6] 0.026 | [7] -0.068 | [8] 0.064 | [9] -0.055 | [10] 0.133

LARP7 isoform 3 (UniProt Q4G0J3)
active: [1] -0.258
inactive: [2] 0.071 | [3] 0.082 | [4] -0.019 | [5] -0.007 | [6] -0.165 | [7] 0.001 | [8] 0.042 | [9] 0.082 | [10] -0.041

LRRC57 (UniProt Q8N9N7)
inactive: [1] -0.003 | [2] -0.066 | [3] 0.02 | [4] -0.045 | [5] -0.021 | [6] 0.047 | [7] 0.015 | [8] 0.031 | [9] 0.011 | [10] 0.04

Quoted from the listing (eight entries):
LMF2 (UniProt Q9BU23)
inactive: [1] -0.041 | [2] -0.011 | [3] -0.027 | [4] -0.02 | [5] -0.025 | [6] -0.014 | [7] 0.013 | [8] -0.021 | [9] 0.062 | [10] -0.095

LENG1 (UniProt Q96BZ8)
inactive: [1] -0.062 | [2] 0.025 | [3] -0.05 | [4] 0.006 | [5] -0.108 | [6] 0.036 | [7] -0.018 | [8] 0.071 | [9] -0.003 | [10] 0.032

L1RE1 (UniProt Q9UN81)
inactive: [1] -0.058 | [2] 0.018 | [3] -0.026 | [4] 0.087 | [5] -0.328 | [6] 0 | [7] -0.021 | [8] 0.122 | [9] 0.012

LDLRAP1 (UniProt Q5SW96)
inactive: [1] 0.023

LIN28B (UniProt Q6ZN17)
inactive: [1] -0.04 | [2] 0.169 | [3] 0.017 | [4] 0.151 | [5] -0.087 | [6] -0.012 | [7] 0.025 | [8] 0.001 | [9] 0.043 | [10] 0.014

L3HYPDH (UniProt Q96EM0)
inactive: [1] 0.022 | [2] -0.116 | [3] 0.037 | [4] -0.136 | [5] 0.024 | [6] -0.04 | [7] 0.041 | [8] 0.025 | [9] 0.062 | [10] 0.032

LAMB1 (UniProt P07942)
inactive: [1] -0.013 | [2] 0.048 | [3] 0.028 | [4] 0.001 | [5] -0.012 | [6] -0.044 | [7] 0.018 | [8] 0.027 | [9] 0.009 | [10] 0

LARGE2 (UniProt Q8N3Y3)
inactive: [1] 0.004 | [2] 0.109

Following part

KTN1 (UniProt Q86UP2)
inactive: [1] 0.023 | [2] 0.146 | [3] 0.034 | [4] 0.004 | [5] 0.032 | [6] -0.001 | [7] -0.08 | [8] -0.116 | [9] -0.038 | [10] -0.086

LIN7A (UniProt O14910)
inactive: [1] -0.123 | [2] 0.007 | [3] -0.033 | [4] 0.029 | [5] -0.009 | [6] -0.145 | [7] 0.053 | [8] 0.026 | [9] 0.024

LANCL1 (UniProt O43813)
inactive: [1] 0.04 | [2] -0.033 | [3] 0.023 | [4] -0.023 | [5] -0.025 | [6] 0.03 | [7] -0.031 | [8] 0.03 | [9] -0.05 | [10] 0.008

LAGE3 (UniProt Q14657)
inactive: [1] -0.083 | [2] -0.043 | [3] -0.016 | [4] -0.069 | [5] 0.097 | [6] 0.017 | [7] 0.037 | [8] -0.013 | [9] -0.047 | [10] 0.036

LRPAP1 (UniProt P30533)
inactive: [1] -0.076 | [2] -0.002 | [3] 0.018 | [4] 0.039 | [5] 0.045 | [6] 0.047 | [7] 0.05 | [8] -0.027 | [9] 0.01 | [10] 0.004

LCMT1 (UniProt Q9UIC8)
inactive: [1] -0.134 | [2] -0.046 | [3] 0.052 | [4] -0.126 | [5] -0.066 | [6] 0.053 | [7] 0.015 | [8] 0.023 | [9] 0.011 | [10] 0.009

LARP1 (UniProt Q6PKG0)
inactive: [1] 0 | [2] 0.048 | [3] -0.048 | [4] 0.089 | [5] 0.137 | [6] -0.001 | [7] -0.049 | [8] -0.161 | [9] 0.023 | [10] -0.152

LMAN2 (UniProt Q12907)
inactive: [1] -0.014 | [2] -0.071 | [3] -0.002 | [4] -0.047 | [5] -0.024 | [6] 0 | [7] -0.003 | [8] 0.025 | [9] 0.02 | [10] 0.041
